No constants are given. Whether binding was seen depends on the method and setting. For some assays here: Binding seen in cells or lysates may run through a third protein. Some binding calls cover weakened binding; strength is not graded here. For some assays here: Sequences can lack the tags named with a protein. Values belong to the binder of their own block, whether it stands above or below them.
What was measured:
GL1 (Arabidopsis) = biological target: T1, GL1 (Arabidopsis) (UniProt P27900); assay: two-hybrid; dimer tests of MYB82 and GL1, full length and fragments, in pGBKT7 or pGADT7 (which in which is not told); growth on synthetic dropout medium lacking Leu/Trp/His/Ade and containing 5mM 3AT
T1 sequence: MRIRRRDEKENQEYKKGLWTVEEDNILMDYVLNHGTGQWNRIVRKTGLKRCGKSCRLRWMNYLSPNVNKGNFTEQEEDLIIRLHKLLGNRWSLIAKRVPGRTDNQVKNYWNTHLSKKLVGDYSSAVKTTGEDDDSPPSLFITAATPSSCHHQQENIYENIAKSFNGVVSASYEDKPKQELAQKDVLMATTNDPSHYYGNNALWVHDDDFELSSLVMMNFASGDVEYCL

MYB82 (Arabidopsis) [1] = biological target: T2, MYB82 (Arabidopsis) (UniProt Q9LTF7); assay: two-hybrid; MYB82 and its fragments fused to the BD of pGBKT7, GL3 fused to the AD of pGADT7; growth on synthetic dropout medium lacking Leu/Trp/His/Ade and containing 5mM 3AT
T2 sequence: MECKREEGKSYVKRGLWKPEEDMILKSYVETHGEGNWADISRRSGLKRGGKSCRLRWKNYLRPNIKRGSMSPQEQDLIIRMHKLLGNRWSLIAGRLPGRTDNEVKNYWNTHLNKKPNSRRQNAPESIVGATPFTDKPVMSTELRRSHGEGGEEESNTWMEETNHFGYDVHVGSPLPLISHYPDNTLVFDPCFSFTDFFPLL

MYB82-nYFP (Arabidopsis) = biological target: T3, MYB82-nYFP (Arabidopsis) (UniProt Q9LTF7); assay: split reporter; BiFC: nYFP and cYFP fusions transiently coexpressed in N. benthamiana leaves by Agrobacterium infiltration, 24 °C for 48h before observation
T3 sequence: T2 sequence

MYB82 (Arabidopsis) [2] = biological target: T2, MYB82 (Arabidopsis); assay: two-hybrid; dimer tests of MYB82 and GL1, full length and fragments, in pGBKT7 or pGADT7 (which in which is not told); growth on synthetic dropout medium lacking Leu/Trp/His/Ade and containing 5mM 3AT

binding (GL1 (Arabidopsis)): binds
B1: GL1 (protein, UniProt P27900 1-228)
chain: T1 sequence

binding (MYB82 (Arabidopsis) [1]): binds
B2: GLABRA3 (GL3) (protein, UniProt Q9FN69 1-637)
chain: MATGQNRTTVPENLKKHLAVSVRNIQWSYGIFWSVSASQSGVLEWGDGYYNGDIKTRKTIQASEIKADQLGLRRSEQLSELYESLSVAESSSSGVAAGSQVTRRASAAALSPEDLADTEWYYLVCMSFVFNIGEGMPGRTFANGEPIWLCNAHTADSKVFSRSLLAKSAAVKTVVCFPFLGGVVEIGTTEHITEDMNVIQCVKTSFLEAPDPYATILPARSDYHIDNVLDPQQILGDEIYAPMFSTEPFPTASPSRTTNGFDQEHEQVADDHDSFMTERITGGASQVQSWQLMDDELSNCVHQSLNSSDCVSQTFVEGAAGRVAYGARKSRVQRLGQIQEQQRNVKTLSFDPRNDDVHYQSVISTIFKTNHQLILGPQFRNCDKQSSFTRWKKSSSSSSGTATVTAPSQGMLKKIIFDVPRVHQKEKLMLDSPEARDETGNHAVLEKKRREKLNERFMTLRKIIPSINKIDKVSILDDTIEYLQELERRVQELESCRESTDTETRGTMTMKRKKPCDAGERTSANCANNETGNGKKVSVNNVGEAEPADTGFTGLTDNLRIGSFGNEVVIELRCAWREGVLLEIMDVISDLHLDSHSVQSSTGDGLLCLTVNCKHKGSKIATPGMIKEALQRVAWIC

binding (MYB82-nYFP (Arabidopsis)): binds
B3: GL3-cYFP (protein, UniProt Q9FN69 1-637)
chain: B2 chain

binding (MYB82 (Arabidopsis) [2]): binds | binding (GL1 (Arabidopsis)): binds
B4: MYB82 (protein, UniProt Q9LTF7 1-201)
chain: T2 sequence

From publication PMC4071844
